Results reported in paper PMC11286758.
These are yes or no findings as the source states them, for the method shown. In cells and extracts the contact can be indirect. Some binding calls cover weakened binding; strength is not graded here.

Chains of the proteins cited; added tags and fusions are not shown.
UniProt Q13216: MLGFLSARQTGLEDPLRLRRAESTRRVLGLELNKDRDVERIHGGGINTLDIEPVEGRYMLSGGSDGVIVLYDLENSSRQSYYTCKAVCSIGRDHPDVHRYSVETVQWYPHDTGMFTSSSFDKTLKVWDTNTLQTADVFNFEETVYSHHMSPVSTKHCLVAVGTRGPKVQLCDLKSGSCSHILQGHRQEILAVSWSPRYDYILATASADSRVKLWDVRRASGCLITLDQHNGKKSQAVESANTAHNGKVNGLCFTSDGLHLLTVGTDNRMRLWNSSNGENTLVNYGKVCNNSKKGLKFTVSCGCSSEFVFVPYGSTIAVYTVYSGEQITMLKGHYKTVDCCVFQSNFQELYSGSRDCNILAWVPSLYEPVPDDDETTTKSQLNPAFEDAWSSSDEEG
UniProt Q92905: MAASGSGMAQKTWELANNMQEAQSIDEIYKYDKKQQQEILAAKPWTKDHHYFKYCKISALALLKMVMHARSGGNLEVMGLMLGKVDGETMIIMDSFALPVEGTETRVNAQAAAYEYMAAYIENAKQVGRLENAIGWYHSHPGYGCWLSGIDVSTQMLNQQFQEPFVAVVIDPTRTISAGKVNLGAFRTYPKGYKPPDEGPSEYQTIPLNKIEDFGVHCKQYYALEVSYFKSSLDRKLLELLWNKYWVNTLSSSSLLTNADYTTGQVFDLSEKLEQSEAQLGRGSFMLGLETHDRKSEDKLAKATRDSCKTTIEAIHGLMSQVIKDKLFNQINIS
UniProt Q13619: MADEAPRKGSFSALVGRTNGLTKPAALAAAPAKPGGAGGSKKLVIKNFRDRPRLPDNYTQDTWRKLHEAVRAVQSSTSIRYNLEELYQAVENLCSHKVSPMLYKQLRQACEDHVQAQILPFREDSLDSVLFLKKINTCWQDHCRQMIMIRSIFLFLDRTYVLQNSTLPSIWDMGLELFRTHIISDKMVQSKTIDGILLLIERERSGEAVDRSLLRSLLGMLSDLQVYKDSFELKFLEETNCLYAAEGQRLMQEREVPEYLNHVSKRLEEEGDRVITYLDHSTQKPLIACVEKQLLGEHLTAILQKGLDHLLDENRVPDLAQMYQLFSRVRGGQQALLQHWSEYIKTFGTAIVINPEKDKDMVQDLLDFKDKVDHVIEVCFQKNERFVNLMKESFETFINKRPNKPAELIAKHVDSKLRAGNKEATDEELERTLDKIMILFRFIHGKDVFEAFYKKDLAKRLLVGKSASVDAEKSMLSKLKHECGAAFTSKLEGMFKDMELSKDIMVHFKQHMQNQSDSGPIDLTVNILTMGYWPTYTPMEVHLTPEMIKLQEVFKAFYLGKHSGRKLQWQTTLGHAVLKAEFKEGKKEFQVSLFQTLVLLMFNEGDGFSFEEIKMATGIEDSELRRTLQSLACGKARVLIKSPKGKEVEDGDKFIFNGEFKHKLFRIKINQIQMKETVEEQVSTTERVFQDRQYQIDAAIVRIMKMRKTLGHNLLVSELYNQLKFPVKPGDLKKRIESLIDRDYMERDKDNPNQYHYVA

Columns and labels:
[1] = biological target: CSA-mClover (human (endogenous in HCT116)) (UniProt Q13216); assay: co-IP; GFP-Trap beads on the GFP or mClover tag, 90 min at 4 °C; lysis in 30 mM HEPES pH 7.5, 130 mM NaCl, 1 mM MgCl2, 0.5% Triton X-100, sonication, Benzonase; immunoblot; cells mock-treated or UV irradiated, WT or DDA1KO
CSA-GFP (human) = CSA-GFP (human) (UniProt Q13216); assay: as above

binding [1] | binding (CSA-GFP (human)) | Substance
binds | binds | CSN5 (from UniProt Q92905 1-334)
binds | binds | CUL4A (from UniProt Q13619 1-759)
